Assay: Brain concentration by mass spectrometry from brains harvested after tremor recording
Details: CFB/SK2 SC100×100, at minimally efficacious dose

SMILES	Calculated % SK2 SC100
Cc1cc(C)n(-c2nc(NC3CCC(F)(F)CC3)cc(N3CCOCC3)n2)n1 [Compound 1]	24%
Cc1ccn(-c2nc(NC3CCC(F)(F)CC3)cc(N3CCOCC3)n2)n1 [Compound 2]	16%
